Results reported in article doi:10.1101/2023.02.08.527602 (bioRxiv, 2023).
No constants are given. Whether binding was seen depends on the method and setting. In cells and extracts the contact can be indirect. Some entries that bind do so weakly or less than the wild type.

Chains of the proteins cited; added tags and fusions are not shown. Residues count along the entry.
UniProt P28799, residues 18-593: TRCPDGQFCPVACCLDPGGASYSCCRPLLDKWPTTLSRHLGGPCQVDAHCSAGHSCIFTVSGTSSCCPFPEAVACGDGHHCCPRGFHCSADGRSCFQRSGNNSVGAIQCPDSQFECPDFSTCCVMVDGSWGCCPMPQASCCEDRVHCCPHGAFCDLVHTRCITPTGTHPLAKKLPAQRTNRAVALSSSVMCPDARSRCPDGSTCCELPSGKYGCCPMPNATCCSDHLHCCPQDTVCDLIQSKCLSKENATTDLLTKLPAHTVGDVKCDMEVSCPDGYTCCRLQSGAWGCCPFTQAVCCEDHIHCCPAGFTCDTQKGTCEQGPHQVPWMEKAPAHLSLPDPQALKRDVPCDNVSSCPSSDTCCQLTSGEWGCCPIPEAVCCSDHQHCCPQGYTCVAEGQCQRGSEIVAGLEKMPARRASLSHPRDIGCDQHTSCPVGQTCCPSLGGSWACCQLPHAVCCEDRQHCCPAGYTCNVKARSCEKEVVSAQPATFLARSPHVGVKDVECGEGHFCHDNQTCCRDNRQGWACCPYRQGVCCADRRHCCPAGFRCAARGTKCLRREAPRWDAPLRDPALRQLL
UniProt Q96PQ0, residues 51-1159: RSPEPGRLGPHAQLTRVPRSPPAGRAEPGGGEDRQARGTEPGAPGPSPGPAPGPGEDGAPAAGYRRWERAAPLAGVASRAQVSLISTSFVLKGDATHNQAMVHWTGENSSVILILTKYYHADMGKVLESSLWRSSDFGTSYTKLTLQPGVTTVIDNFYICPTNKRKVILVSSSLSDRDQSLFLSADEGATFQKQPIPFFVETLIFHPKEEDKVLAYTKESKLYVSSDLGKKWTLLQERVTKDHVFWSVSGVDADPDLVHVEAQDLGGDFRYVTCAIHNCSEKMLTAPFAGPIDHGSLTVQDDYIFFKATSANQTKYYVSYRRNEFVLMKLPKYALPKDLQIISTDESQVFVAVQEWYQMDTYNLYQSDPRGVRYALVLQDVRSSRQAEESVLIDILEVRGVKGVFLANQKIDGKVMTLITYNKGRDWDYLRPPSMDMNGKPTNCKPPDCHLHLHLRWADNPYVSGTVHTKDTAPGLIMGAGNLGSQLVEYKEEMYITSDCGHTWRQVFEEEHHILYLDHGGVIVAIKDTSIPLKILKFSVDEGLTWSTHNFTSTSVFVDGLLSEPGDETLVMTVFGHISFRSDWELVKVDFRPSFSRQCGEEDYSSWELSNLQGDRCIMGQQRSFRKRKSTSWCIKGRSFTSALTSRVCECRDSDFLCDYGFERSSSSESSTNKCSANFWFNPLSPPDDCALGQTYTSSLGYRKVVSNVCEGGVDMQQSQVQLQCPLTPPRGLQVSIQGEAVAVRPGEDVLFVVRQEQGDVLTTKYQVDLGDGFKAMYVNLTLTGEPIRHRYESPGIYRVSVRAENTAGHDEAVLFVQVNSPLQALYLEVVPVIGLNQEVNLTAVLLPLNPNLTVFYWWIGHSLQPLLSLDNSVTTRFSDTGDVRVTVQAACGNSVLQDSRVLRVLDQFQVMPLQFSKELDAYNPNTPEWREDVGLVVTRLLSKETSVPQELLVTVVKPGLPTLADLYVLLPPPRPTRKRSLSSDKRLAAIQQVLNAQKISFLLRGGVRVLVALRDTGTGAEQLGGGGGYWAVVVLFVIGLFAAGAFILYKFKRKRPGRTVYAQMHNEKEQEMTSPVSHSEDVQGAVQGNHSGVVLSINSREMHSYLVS

Assays:
[1] = molecular target: N-terminally HA-tagged human progranulin overexpressed in HEK293 cells (human) (UniProt P28799); assay: co-IP
[2] = molecular target: human progranulin overexpressed in HEK293 cells (human) (UniProt P28799); assay: co-IP

proform of human SorCS2 (from the full-length construct in HEK293 cells) (from UniProt Q96PQ0 51-1159) (receptor)
binding [1]: binds
binding [2]: binds
